Some of these results come from one statement about several compounds together.
Biological target: T1, OXE receptor (Homo sapiens, UniProt Q8TDS5)
T1 construct: Human granulocytes (≥95% neutrophils) are prepared from whole blood; endogenous in cells; host or cells: human granulocytes (≥95% neutrophils) from whole blood
Experiment: Calcium mobilization in human granulocytes (inhibition of 5-oxo-ETE-induced calcium mobilization)
Format: cell-based
Protocol: Evaluation of Antagonist Activity: Calcium Mobilization in Human Granulocytes
Human granulocytes (≥95% neutrophils) are prepared from whole blood using Dextran 500 to remove red blood cells, followed by centrifugation over Ficoll-Paque to remove mononuclear cells and hypotonic lysis of any remaining red blood cells. After centrifugation the granulocytes are suspended in Ca^++/Mg^++-free phosphate-buffered saline (PBS^−). Granulocytes (10^7 cells/ml) are incubated with the acetoxymethyl ester of indo-1 (1 μM) for 30 min, followed by washing twice with PBS^− and resuspension in the same medium to obtain a final cell concentration of 3.22×10^6 cells/ml. […] Following stabilization of the baseline, fluorescence is measured for 1 min, prior to the addition of either vehicle or various concentrations of a potential 5-oxo-ETE antagonist. […] Fmax is determined from fluorescence measurements after the addition of digitonin, whereas Fmin is determined after determination of autofluorescence as described in the literature. […] The % inhibition of 5-oxo-ETE-induced calcium mobilization by the antagonist is calculated as follows: Inhibition (%)=(1−(Caant/Ca^++veh))×100 where Caant is the increase in cytosolic calcium levels induced by 5-oxo-ETE (10 nM) following the addition of a potential antagonist, whereas Caveh is the response induced by 5-oxo-ETE following addition of vehicle alone.

Protein sequences, listed by entry. Tags and fused reporters are not part of them. Lines headed by an entry give the natural chain unless they say otherwise; changes in a name come on top.
UniProt Q8TDS5: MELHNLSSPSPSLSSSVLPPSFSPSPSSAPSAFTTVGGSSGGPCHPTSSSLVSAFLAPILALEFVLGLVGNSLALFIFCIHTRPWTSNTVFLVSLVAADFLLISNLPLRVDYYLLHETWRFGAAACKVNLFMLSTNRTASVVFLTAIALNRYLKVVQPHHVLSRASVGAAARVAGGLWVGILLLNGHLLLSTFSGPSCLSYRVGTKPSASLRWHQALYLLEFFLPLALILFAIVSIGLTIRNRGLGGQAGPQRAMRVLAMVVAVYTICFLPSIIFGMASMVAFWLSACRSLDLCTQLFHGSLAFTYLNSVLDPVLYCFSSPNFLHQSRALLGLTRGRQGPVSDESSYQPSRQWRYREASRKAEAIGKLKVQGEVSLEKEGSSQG

In the case of `CC(CC(=O)O)CC(=O)c1c(CCCCCc2ccccc2)n(C)c2ccc(Cl)cc12` (stereo not shown) [Compound 14, 5-(5-chloro-1-methyl-2-(5-phenylpentyl)-1H-indol-3-yl)-3-methyl-5-oxopentanoic acid], the “antagonist activity / potency in words” value is reported as “acceptable potencies”.

— patent US10501414B2, “Indole analogs as 5-oxo-ETE receptor antagonists and method of use thereof” (THE ROYAL INSTITUTION FOR THE ADVANCEMENT OF …, priority 2015, dated 2019)
